At least one peptide structure holds a part that was inferred or is arguable (an end, a ring closure or a residue). No end group written: not given here.
How the values were obtained:
Format in all cases: cell-based, human
[1] = system: PBMC of HLA-A2+ brain tumor patients; targets T2 cells pulsed with corresponding peptide and/or HLA-A2+ tumor cells; assay: Induction of CTL by peptides from PBMC of brain tumor patients (Example 5): IFN-γ production
Experimental: (§1) The PBMC were prepared by methods of the art from the blood of three primary brain tumor patients and one metastatic brain tumor patient. The PBMC obtained were stimulated by incubation with each peptide in the same way as in Example 4, and were cultured by the same method as in Example 3 using T2 cells that were pulsed with each corresponding peptide or KNS60 tumor cells as target cells, followed by measuring the quantity of IFN-γ produced. When T2 cells that were pulsed with the peptides were used as target cells, the PBMC was paired with the T2 cells in such a way that the peptide used to stimulate PBMC and the peptide pulsed to T2 cells were the same.

[2] = system: KNS60 tumor cells (HLA-A2+); assay: 6-hour 51Cr release test with peptide-stimulated PBMC; conditions: PBMC from Patient Case 1 stimulated with peptide
[3] = system: PBMC of HLA-A2+ brain tumor patient or healthy subject; assay: Induction of CTL by peptides from PBMC (Example 4): IFN-γ production against T2 cells pulsed with corresponding peptide; conditions: Patient Case 1 (metastatic brain tumor), 10 μM peptide, 10 days culture
HLA-A2+ tumor cells = assay: Peptide-stimulated PBMC of multiple sclerosis patients: recognition of tumor cells (IFN-γ); conditions: PBMC from multiple sclerosis patients
Experimental: as §1
(§2) Among the 13 types of peptide obtained in Example 3, three peptides, P101 (SEQ ID NO: 1), P102 (SEQ ID NO: 2), and P103 (SEQ ID NO: 3), which were derived from clone 8B6, as well as three peptides, P104 (SEQ ID NO: 4), P105 (SEQ ID NO: 5), and P106 (SEQ ID NO: 6), which were derived from clone 2G2, were examined for their ability to induce CTL from PBMC obtained from multiple sclerosis patients having HLA-A2 as the HLA type and healthy subjects, in the same manner as in Example 5.

[4] = system: PBMC of multiple sclerosis patients; T2 cells pulsed with corresponding peptide; assay: Peptide recognition in PBMC of multiple sclerosis patients (Example 6): IFN-γ production against peptide-pulsed T2 cells
Experimental: as §1, §2

[5] = system: OK-CTL (HLA-A2-restricted cytotoxic T-lymphocyte strain); assay: CTL activation test: T2 cells pulsed with peptide co-cultured with OK-CTL, IFN-γ by ELISA; conditions: E/T ratio=10, 18 hours, dose-dependent
Experimental: The T2 cells, pulsed with each peptide in this way, were used as the target cells (T). In addition, the OK-CTL obtained in Example 1 were used as effector cells (E). Target cells amounting to 1×10^4 and effector cells amounting to 1×10^5 were mixed (E/T ratio=10) and incubated for 18 hours. After incubation, 100 μl of supernatant was collected, and IFN-γ was measured by ELISA. The quantity of IFN-γ produced by CTL against T2 cells that were not pulsed with a peptide was taken as the background and subtracted from each measurement value.

CD4+ cells = CD4+ cells purified from peptide-stimulated cells co-cultured with peptide-pulsed T2 cells, IFN-γ, antibody inhibition; conditions: T2 cells pulsed with corresponding peptide
[6] = system: PBMC from the healthy subject; T2 cells pulsed with corresponding peptide; assay: Peptide-stimulated PBMC from healthy subject: recognition of peptide-pulsed T2 cells, IFN-γ, antibody inhibition (Example 7)

| Sequence | production of IFN-γ from PBMC ([1]; Patient Case 3 (brain tumor)) | production of IFN-γ from PBMC ([1]; Patient Case 4 (brain tumor)) | specific lysis of KNS60 tumor cells [2] | production of IFN-γ from PBMC [3] | recognition of tumor cells by peptide-stimulated PBMC (HLA-A2+ tumor cells) | production of IFN-γ from PBMC ([4]; MS Patient Case 6) | production of IFN-γ from PBMC ([4]; MS Patient Case 7) | recognition by OK-CTL / production of IFN-γ from OK-CTL [5] | production of IFN-γ from PBMC ([1]; Patient Case 5 (brain tumor)) | production of IFN-γ (CD4+ cells) | production of IFN-γ from PBMC ([4]; MS Patient Case 8) | production of IFN-γ on recognition of peptide-pulsed T2 cells [6] |
| --- | --- | --- | --- | --- | --- | --- | --- | --- | --- | --- | --- | --- |
| NLLKVNIHI [P103, NLLKVNIHI] | enhanced production of IFN-γ | enhanced production of IFN-γ | specifically lysed KNS60 tumor cells | enhanced production of IFN-γ from PBMC | did not recognize the tumor cells | enhanced production of IFN-γ | enhanced production of IFN-γ | enhanced production of IFN-γ from OK-CTL |  |  |  |  |
| GITFQVWDV [P106, GITFQVWDV] |  |  | specifically lysed KNS60 tumor cells | enhanced production of IFN-γ from PBMC | did not recognize the tumor cells |  |  | enhanced production of IFN-γ from OK-CTL | enhanced production of IFN-γ | production of IFN-γ was observed | enhanced production of IFN-γ | produced IFN-γ |
